No constants are given. Whether binding was seen depends on the method and setting. Binding seen in cells or lysates may run through a third protein. Some entries that bind do so weakly or less than the wild type.
Target: T1, bZIP63, pSPYNE(R)173-bZIP63 (UniProt B9DGI8)
T1 sequence: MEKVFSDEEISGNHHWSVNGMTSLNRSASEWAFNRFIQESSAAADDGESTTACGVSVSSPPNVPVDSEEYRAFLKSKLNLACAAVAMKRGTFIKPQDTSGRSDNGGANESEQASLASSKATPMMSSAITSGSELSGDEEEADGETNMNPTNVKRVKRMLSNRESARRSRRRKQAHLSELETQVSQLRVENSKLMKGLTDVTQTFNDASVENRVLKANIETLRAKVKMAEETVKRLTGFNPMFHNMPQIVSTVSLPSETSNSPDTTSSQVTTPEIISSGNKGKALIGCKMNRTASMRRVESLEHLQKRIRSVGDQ
Assay: split reporter; BiFC: pSPYNE(R)173 and pSPYCE(M) fusions transiently co-expressed in N. benthamiana leaves by Agrobacterium GV3101 infiltration, 2 days at about 21°C, laser confocal microscopy (488 nm excitation, 509 nm emission)

B1: bZIP1, pSPYCE(M)-bZIP1 (protein, UniProt Q9FGX2 1-145)
chain: MANAEKTSSGSDIDEKKRKRKLSNRESARRSRLKKQKLMEDTIHEISSLERRIKENSERCRAVKQRLDSVETENAGLRSEKIWLSSYVSDLENMIATTSLTLTQSGGGDCVDDQNANAGIAVGDCRRTPWKLSCGSLQPMASFKT
- binding: binds

Source: publication PMC9520005
